# According to the supplement of paper PMC8728848:
# The list shows a part of the results.
# Assays:
# Assay in all cases: glycan array binding signal (z-score within array); higher = stronger binding
# Conditions in all cases: glycan notation: IUPAC condensed, linker removed
# [1] = molecular target: Gal(b1-4)GlcNAc(b1-2)[Gal(b1-4)GlcNAc(b1-6)]Man(a1-6)[Gal(b1-4)GlcNAc(b1-2)Man(a1-3)]Man(b1-4)GlcNAc(b1-4)GlcNAc
# Procedure, shortened: (§1)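 The Consortium for Functional Glycomics database supplied 3228 glycan arrays, of which those lacking an available protein sequence were dropped. The binding signal, a within-array Z-score, was averaged across arrays of the same protein sequence and across linkers. Negative scores can be read as non-binding.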
# [2] = molecular target: Gal(b1-4)GlcNAc(b1-2)[Gal(b1-4)GlcNAc(b1-6)]Man(a1-6)[Gal(b1-4)GlcNAc(b1-2)Man(a1-3)]Man(b1-4)GlcNAc(b1-4)[Fuc(a1-6)]GlcNAc
# Procedure, shortened: as §1
# [3] = molecular target: Gal(b1-4)GlcNAc(b1-2)[Gal(b1-4)GlcNAc(b1-6)]Man(a1-6)[GlcNAc(b1-4)][Gal(b1-4)GlcNAc(b1-2)Man(a1-3)]Man(b1-4)GlcNAc(b1-4)GlcNAc
# Procedure, shortened: as §1
# [4] = molecular target: Gal(b1-4)GlcNAc(b1-2)[Gal(b1-4)GlcNAc(b1-6)]Man(a1-6)[GlcNAc(b1-4)][Gal(b1-4)GlcNAc(b1-2)[Gal(b1-4)GlcNAc(b1-4)]Man(a1-3)]Man(b1-4)GlcNAc(b1-4)[Fuc(a1-6)]GlcNAc
# Procedure, shortened: as §1
# [5] = molecular target: Gal(b1-4)GlcNAc(b1-3)Gal(b1-3)GalNAc
# Procedure, shortened: as §1
# [6] = molecular target: Gal(b1-4)GlcNAc(b1-3)Gal(b1-3)GlcNAc
# Procedure, shortened: as §1
# [7] = molecular target: Gal(b1-4)GlcNAc(b1-3)Gal(b1-4)Glc
# Procedure, shortened: as §1
# [8] = molecular target: Gal(b1-4)GlcNAc(b1-3)Gal(b1-4)GlcNAc
# Procedure, shortened: as §1
# [9] = molecular target: Gal(b1-4)GlcNAc(b1-3)Gal(b1-4)GlcNAc(b1-2)Man(a1-3)[Gal(b1-4)GlcNAc(b1-3)Gal(b1-4)GlcNAc(b1-2)Man(a1-6)]Man(b1-4)GlcNAc(b1-4)GlcNAc
# Procedure, shortened: as §1
# [10] = molecular target: Gal(b1-4)GlcNAc(b1-3)Gal(b1-4)GlcNAc(b1-2)Man(a1-3)[Gal(b1-4)GlcNAc(b1-3)Gal(b1-4)GlcNAc(b1-2)Man(a1-6)]Man(b1-4)GlcNAc(b1-4)[Fuc(a1-6)]GlcNAc
# Procedure, shortened: as §1
# [11] = molecular target: Gal(b1-4)GlcNAc(b1-3)Gal(b1-4)GlcNAc(b1-2)[Gal(b1-4)GlcNAc(b1-3)Gal(b1-4)GlcNAc(b1-6)]Man(a1-6)[Gal(b1-4)GlcNAc(b1-3)Gal(b1-4)GlcNAc(b1-2)Man(a1-3)]Man(b1-4)GlcNAc(b1-4)GlcNAc
# Procedure, shortened: as §1
# [12] = molecular target: Gal(b1-4)GlcNAc(b1-3)Gal(b1-4)GlcNAc(b1-2)[Gal(b1-4)GlcNAc(b1-3)Gal(b1-4)GlcNAc(b1-6)]Man(a1-6)[Gal(b1-4)GlcNAc(b1-3)Gal(b1-4)GlcNAc(b1-2)Man(a1-3)]Man(b1-4)GlcNAc(b1-4)[Fuc(a1-6)]GlcNAc
# Procedure, shortened: as §1
# [13] = molecular target: Gal(b1-4)GlcNAc(b1-3)Gal(b1-4)GlcNAc(b1-3)Gal(b1-4)GlcNAc
# Procedure, shortened: as §1
# [14] = molecular target: Gal(b1-4)GlcNAc(b1-3)Gal(b1-4)GlcNAc(b1-3)Gal(b1-4)GlcNAc(b1-2)Man(a1-3)[Gal(b1-4)GlcNAc(b1-3)Gal(b1-4)GlcNAc(b1-3)Gal(b1-4)GlcNAc(b1-2)Man(a1-6)]Man(b1-4)GlcNAc(b1-4)GlcNAc
# Procedure, shortened: as §1
# [15] = molecular target: Gal(b1-4)GlcNAc(b1-3)Gal(b1-4)GlcNAc(b1-3)Gal(b1-4)GlcNAc(b1-2)Man(a1-3)[Gal(b1-4)GlcNAc(b1-3)Gal(b1-4)GlcNAc(b1-3)Gal(b1-4)GlcNAc(b1-2)Man(a1-6)]Man(b1-4)GlcNAc(b1-4)[Fuc(a1-6)]GlcNAc
# Procedure, shortened: as §1
# [16] = molecular target: Gal(b1-4)GlcNAc(b1-3)Gal(b1-4)GlcNAc(b1-3)Gal(b1-4)GlcNAc(b1-2)[Gal(b1-4)GlcNAc(b1-3)Gal(b1-4)GlcNAc(b1-3)Gal(b1-4)GlcNAc(b1-6)]Man(a1-6)[Gal(b1-4)GlcNAc(b1-3)Gal(b1-4)GlcNAc(b1-3)Gal(b1-4)GlcNAc(b1-2)Man(a1-3)]Man(b1-4)GlcNAc(b1-4)[Fuc(a1-6)]GlcNAc
# Procedure, shortened: as §1
# [17] = molecular target: Gal(b1-4)GlcNAc(b1-3)Gal(b1-4)GlcNAc(b1-3)Gal(b1-4)GlcNAc(b1-3)Gal(b1-4)GlcNAc(b1-2)Man(a1-3)[Gal(b1-4)GlcNAc(b1-3)Gal(b1-4)GlcNAc(b1-3)Gal(b1-4)GlcNAc(b1-3)Gal(b1-4)GlcNAc(b1-2)Man(a1-6)]Man(b1-4)GlcNAc(b1-4)GlcNAc
# Procedure, shortened: as §1
# [18] = molecular target: Gal(b1-4)GlcNAc(b1-3)Gal(b1-4)GlcNAc(b1-3)Gal(b1-4)GlcNAc(b1-3)Gal(b1-4)GlcNAc(b1-2)Man(a1-3)[Gal(b1-4)GlcNAc(b1-3)Gal(b1-4)GlcNAc(b1-3)Gal(b1-4)GlcNAc(b1-3)Gal(b1-4)GlcNAc(b1-2)Man(a1-6)]Man(b1-4)GlcNAc(b1-4)[Fuc(a1-6)]GlcNAc
# Procedure, shortened: as §1
# [19] = molecular target: Gal(b1-4)GlcNAc(b1-3)Gal(b1-4)GlcNAc(b1-3)Gal(b1-4)GlcNAc(b1-3)Gal(b1-4)GlcNAc(b1-2)[Gal(b1-4)GlcNAc(b1-3)Gal(b1-4)GlcNAc(b1-3)Gal(b1-4)GlcNAc(b1-3)Gal(b1-4)GlcNAc(b1-6)]Man(a1-6)[Gal(b1-4)GlcNAc(b1-3)Gal(b1-4)GlcNAc(b1-3)Gal(b1-4)GlcNAc(b1-3)Gal(b1-4)GlcNAc(b1-2)Man(a1-3)]Man(b1-4)GlcNAc(b1-4)[Fuc(a1-6)]GlcNAc
# Procedure, shortened: as §1
# [20] = molecular target: Gal(b1-4)GlcNAc(b1-3)Gal(b1-4)GlcNAc(b1-3)Gal(b1-4)GlcNAc(b1-3)Gal(b1-4)GlcNAc(b1-3)Gal(b1-4)GlcNAc(b1-2)Man(a1-3)[Gal(b1-4)GlcNAc(b1-3)Gal(b1-4)GlcNAc(b1-3)Gal(b1-4)GlcNAc(b1-3)Gal(b1-4)GlcNAc(b1-3)Gal(b1-4)GlcNAc(b1-2)Man(a1-6)]Man(b1-4)GlcNAc(b1-4)GlcNAc
# Procedure, shortened: as §1
# [21] = molecular target: Gal(b1-4)GlcNAc(b1-3)Gal(b1-4)GlcNAc(b1-3)Gal(b1-4)GlcNAc(b1-3)Gal(b1-4)GlcNAc(b1-3)Gal(b1-4)GlcNAc(b1-2)Man(a1-3)[Gal(b1-4)GlcNAc(b1-3)Gal(b1-4)GlcNAc(b1-3)Gal(b1-4)GlcNAc(b1-3)Gal(b1-4)GlcNAc(b1-3)Gal(b1-4)GlcNAc(b1-2)Man(a1-6)]Man(b1-4)GlcNAc(b1-4)[Fuc(a1-6)]GlcNAc
# Procedure, shortened: as §1
# [22] = molecular target: Gal(b1-4)GlcNAc(b1-3)Gal(b1-4)GlcNAc(b1-3)Gal(b1-4)GlcNAc(b1-3)Gal(b1-4)GlcNAc(b1-3)Gal(b1-4)GlcNAc(b1-2)[Gal(b1-4)GlcNAc(b1-3)Gal(b1-4)GlcNAc(b1-3)Gal(b1-4)GlcNAc(b1-3)Gal(b1-4)GlcNAc(b1-3)Gal(b1-4)GlcNAc(b1-6)]Man(a1-6)[Gal(b1-4)GlcNAc(b1-3)Gal(b1-4)GlcNAc(b1-3)Gal(b1-4)GlcNAc(b1-3)Gal(b1-4)GlcNAc(b1-3)Gal(b1-4)GlcNAc(b1-2)Man(a1-3)]Man(b1-4)GlcNAc(b1-4)[Fuc(a1-6)]GlcNAc
# Procedure, shortened: as §1
# [23] = molecular target: Gal(b1-4)GlcNAc(b1-3)Gal(b1-4)GlcNAc(b1-3)Gal(b1-4)GlcNAc(b1-3)Gal(b1-4)GlcNAc(b1-3)Gal(b1-4)GlcNAc(b1-3)Gal(b1-4)GlcNAc(b1-2)Man(a1-3)[Gal(b1-4)GlcNAc(b1-3)Gal(b1-4)GlcNAc(b1-3)Gal(b1-4)GlcNAc(b1-3)Gal(b1-4)GlcNAc(b1-3)Gal(b1-4)GlcNAc(b1-3)Gal(b1-4)GlcNAc(b1-2)Man(a1-6)]Man(b1-4)GlcNAc(b1-4)GlcNAc
# Procedure, shortened: as §1
# [24] = molecular target: Gal(b1-4)GlcNAc(b1-3)Gal(b1-4)GlcNAc(b1-3)GalNAc
# Procedure, shortened: as §1
# [25] = molecular target: Gal(b1-4)GlcNAc(b1-3)Gal(b1-4)GlcNAc(b1-3)[Gal(b1-4)GlcNAc(b1-3)Gal(b1-4)GlcNAc(b1-6)]GalNAc
# Procedure, shortened: as §1
# [26] = molecular target: Gal(b1-4)GlcNAc(b1-3)Gal(b1-4)GlcNAc(b1-6)[Gal(b1-3)]GalNAc
# Procedure, shortened: as §1
# [27] = molecular target: Gal(b1-4)GlcNAc(b1-3)Gal(b1-4)[Fuc(a1-3)GlcNAc(b1-6)]Gal(b1-4)Glc
# Procedure, shortened: as §1
binder,measurement,setting,value
KILRGVCKKIMRTFLRRISKDILTGKK [NK2 (Sus scrofa)],glycan array binding signal (z-score),[1],0.297
same,glycan array binding signal (z-score),[2],0.274
same,glycan array binding signal (z-score),[3],-0.694
same,glycan array binding signal (z-score),[4],0.637
same,glycan array binding signal (z-score),[5],1.43
same,glycan array binding signal (z-score),[6],-0.996
same,glycan array binding signal (z-score),[7],-0.3
same,glycan array binding signal (z-score),[8],-0.495
same,glycan array binding signal (z-score),[9],-0.133
same,glycan array binding signal (z-score),[10],1.38
same,glycan array binding signal (z-score),[11],-0.505
same,glycan array binding signal (z-score),[12],-0.522
same,glycan array binding signal (z-score),[13],-0.905
same,glycan array binding signal (z-score),[14],-0.037
same,glycan array binding signal (z-score),[15],0.462
same,glycan array binding signal (z-score),[16],-1
same,glycan array binding signal (z-score),[17],-0.393
same,glycan array binding signal (z-score),[18],0.163
same,glycan array binding signal (z-score),[19],-1.12
same,glycan array binding signal (z-score),[20],-0.345
same,glycan array binding signal (z-score),[21],0.626
same,glycan array binding signal (z-score),[22],0.512
same,glycan array binding signal (z-score),[23],-1.28
same,glycan array binding signal (z-score),[24],1.54
same,glycan array binding signal (z-score),[25],0.23
same,glycan array binding signal (z-score),[26],2.04
same,glycan array binding signal (z-score),[27],-0.546

# Reformatted tab-delimited: entries from further up.
binder	measurement	setting	value
KILRGVCKKIMRTFLRRISKDILTGKK [NK2 (Sus scrofa)]	glycan array binding signal (z-score)	[21]	0.626
same	glycan array binding signal (z-score)	[22]	0.512
